Experimental findings from publication PMC10681309 are described below.

These are yes or no findings as the source states them, for the method shown. For some of these results: Binding seen in cells or lysates may run through a third protein. Some binding calls cover weakened binding; strength is not graded here. For some of these results: Tags and fused reporters may be left off the sequences shown.

For assay [1], the target named is GFP-nsp8 (SARS-CoV-2 nonstructural protein 8) (SARS-CoV-2) (UniProt P0DTD1). Put plainly: co-IP.
Assay [2] has as its target nsp8 expressed from the Spike-deleted SARS-CoV-2 replicon (SARS-CoV-2) (UniProt P0DTD1). Put plainly: co-IP.
Another assay concerns the target T1, HA-TRIM4 (UniProt Q9C037).
T1 sequence: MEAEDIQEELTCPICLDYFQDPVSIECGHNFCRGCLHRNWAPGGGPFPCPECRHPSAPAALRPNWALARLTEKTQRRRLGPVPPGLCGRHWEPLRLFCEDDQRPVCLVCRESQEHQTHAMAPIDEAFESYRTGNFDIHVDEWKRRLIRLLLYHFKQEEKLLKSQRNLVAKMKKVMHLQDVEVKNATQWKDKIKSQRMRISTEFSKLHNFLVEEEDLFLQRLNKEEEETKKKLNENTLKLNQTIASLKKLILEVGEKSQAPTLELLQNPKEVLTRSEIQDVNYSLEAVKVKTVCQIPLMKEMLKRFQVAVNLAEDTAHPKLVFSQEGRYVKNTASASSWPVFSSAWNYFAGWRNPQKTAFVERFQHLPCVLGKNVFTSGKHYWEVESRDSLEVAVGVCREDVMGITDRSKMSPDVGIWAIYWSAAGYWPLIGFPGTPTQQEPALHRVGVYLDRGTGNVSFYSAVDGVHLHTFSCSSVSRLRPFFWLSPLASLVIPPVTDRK
Put plainly: co-IP.

The next assay addresses T2, GFP-MDA5 (UniProt Q9BYX4).
T2 sequence: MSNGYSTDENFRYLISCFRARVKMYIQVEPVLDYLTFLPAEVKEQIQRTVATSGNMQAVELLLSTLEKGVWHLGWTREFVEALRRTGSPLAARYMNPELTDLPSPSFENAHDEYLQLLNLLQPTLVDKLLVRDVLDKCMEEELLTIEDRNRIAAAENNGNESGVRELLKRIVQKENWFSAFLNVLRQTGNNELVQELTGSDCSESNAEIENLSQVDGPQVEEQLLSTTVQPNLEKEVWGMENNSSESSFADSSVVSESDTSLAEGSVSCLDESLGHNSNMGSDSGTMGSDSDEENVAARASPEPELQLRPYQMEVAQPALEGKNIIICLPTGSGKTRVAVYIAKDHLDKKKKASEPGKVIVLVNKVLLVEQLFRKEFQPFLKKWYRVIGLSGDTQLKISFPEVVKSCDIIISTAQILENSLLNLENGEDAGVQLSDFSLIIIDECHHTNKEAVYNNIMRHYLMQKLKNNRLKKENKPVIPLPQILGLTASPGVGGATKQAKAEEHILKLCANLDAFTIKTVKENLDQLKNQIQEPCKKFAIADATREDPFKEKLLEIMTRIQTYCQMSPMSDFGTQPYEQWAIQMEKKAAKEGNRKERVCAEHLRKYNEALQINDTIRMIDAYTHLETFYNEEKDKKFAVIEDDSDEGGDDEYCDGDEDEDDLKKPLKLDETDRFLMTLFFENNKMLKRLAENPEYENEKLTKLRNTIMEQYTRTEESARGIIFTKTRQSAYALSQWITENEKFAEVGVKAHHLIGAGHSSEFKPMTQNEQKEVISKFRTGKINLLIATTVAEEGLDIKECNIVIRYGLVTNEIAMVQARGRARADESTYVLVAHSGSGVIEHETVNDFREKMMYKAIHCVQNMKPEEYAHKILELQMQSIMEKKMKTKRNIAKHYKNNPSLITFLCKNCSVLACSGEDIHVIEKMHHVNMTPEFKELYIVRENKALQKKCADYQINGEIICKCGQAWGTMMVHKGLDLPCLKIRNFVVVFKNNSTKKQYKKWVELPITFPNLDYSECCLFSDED
Put plainly: co-IP.

For assay [3], the target named is T3, GST-MDA5 (purified from E. coli) (UniProt Q9BYX4).
T3 sequence: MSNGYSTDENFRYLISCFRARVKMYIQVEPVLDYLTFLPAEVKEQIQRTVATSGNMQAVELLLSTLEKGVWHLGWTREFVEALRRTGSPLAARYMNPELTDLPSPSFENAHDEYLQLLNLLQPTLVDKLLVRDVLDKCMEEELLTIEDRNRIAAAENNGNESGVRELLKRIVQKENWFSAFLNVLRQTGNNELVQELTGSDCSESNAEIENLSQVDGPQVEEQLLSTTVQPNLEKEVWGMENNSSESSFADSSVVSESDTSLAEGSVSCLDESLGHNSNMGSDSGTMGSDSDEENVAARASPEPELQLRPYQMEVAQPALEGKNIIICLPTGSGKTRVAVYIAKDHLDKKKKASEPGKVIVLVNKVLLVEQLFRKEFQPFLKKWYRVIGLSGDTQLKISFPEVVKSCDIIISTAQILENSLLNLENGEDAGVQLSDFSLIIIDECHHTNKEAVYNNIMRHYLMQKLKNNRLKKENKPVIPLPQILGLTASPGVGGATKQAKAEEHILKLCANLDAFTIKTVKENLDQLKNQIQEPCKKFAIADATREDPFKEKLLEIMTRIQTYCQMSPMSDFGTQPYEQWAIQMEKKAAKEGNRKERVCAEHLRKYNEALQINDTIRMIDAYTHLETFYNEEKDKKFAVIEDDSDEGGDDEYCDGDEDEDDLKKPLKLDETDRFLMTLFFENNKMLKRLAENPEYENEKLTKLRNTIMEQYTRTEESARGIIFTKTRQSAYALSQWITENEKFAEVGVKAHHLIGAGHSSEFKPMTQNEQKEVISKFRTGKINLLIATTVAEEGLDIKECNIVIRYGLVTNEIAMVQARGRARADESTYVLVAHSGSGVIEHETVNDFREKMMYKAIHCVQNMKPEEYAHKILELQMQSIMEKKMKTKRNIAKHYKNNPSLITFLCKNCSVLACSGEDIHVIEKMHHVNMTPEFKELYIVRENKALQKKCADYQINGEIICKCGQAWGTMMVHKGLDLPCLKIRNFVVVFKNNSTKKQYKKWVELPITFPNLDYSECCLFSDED
Put plainly: pull-down; both purified.

B1: endogenous MDA5 (protein, UniProt Q9BYX4 1-1025)
chain: MSNGYSTDENFRYLISCFRARVKMYIQVEPVLDYLTFLPAEVKEQIQRTVATSGNMQAVELLLSTLEKGVWHLGWTREFVEALRRTGSPLAARYMNPELTDLPSPSFENAHDEYLQLLNLLQPTLVDKLLVRDVLDKCMEEELLTIEDRNRIAAAENNGNESGVRELLKRIVQKENWFSAFLNVLRQTGNNELVQELTGSDCSESNAEIENLSQVDGPQVEEQLLSTTVQPNLEKEVWGMENNSSESSFADSSVVSESDTSLAEGSVSCLDESLGHNSNMGSDSGTMGSDSDEENVAARASPEPELQLRPYQMEVAQPALEGKNIIICLPTGSGKTRVAVYIAKDHLDKKKKASEPGKVIVLVNKVLLVEQLFRKEFQPFLKKWYRVIGLSGDTQLKISFPEVVKSCDIIISTAQILENSLLNLENGEDAGVQLSDFSLIIIDECHHTNKEAVYNNIMRHYLMQKLKNNRLKKENKPVIPLPQILGLTASPGVGGATKQAKAEEHILKLCANLDAFTIKTVKENLDQLKNQIQEPCKKFAIADATREDPFKEKLLEIMTRIQTYCQMSPMSDFGTQPYEQWAIQMEKKAAKEGNRKERVCAEHLRKYNEALQINDTIRMIDAYTHLETFYNEEKDKKFAVIEDDSDEGGDDEYCDGDEDEDDLKKPLKLDETDRFLMTLFFENNKMLKRLAENPEYENEKLTKLRNTIMEQYTRTEESARGIIFTKTRQSAYALSQWITENEKFAEVGVKAHHLIGAGHSSEFKPMTQNEQKEVISKFRTGKINLLIATTVAEEGLDIKECNIVIRYGLVTNEIAMVQARGRARADESTYVLVAHSGSGVIEHETVNDFREKMMYKAIHCVQNMKPEEYAHKILELQMQSIMEKKMKTKRNIAKHYKNNPSLITFLCKNCSVLACSGEDIHVIEKMHHVNMTPEFKELYIVRENKALQKKCADYQINGEIICKCGQAWGTMMVHKGLDLPCLKIRNFVVVFKNNSTKKQYKKWVELPITFPNLDYSECCLFSDED
With B1, the binding result in assay [1] and in assay [2] was “binds” throughout.

B2: GFP-MDA5 (protein, UniProt Q9BYX4 1-1025)
chain: MSNGYSTDENFRYLISCFRARVKMYIQVEPVLDYLTFLPAEVKEQIQRTVATSGNMQAVELLLSTLEKGVWHLGWTREFVEALRRTGSPLAARYMNPELTDLPSPSFENAHDEYLQLLNLLQPTLVDKLLVRDVLDKCMEEELLTIEDRNRIAAAENNGNESGVRELLKRIVQKENWFSAFLNVLRQTGNNELVQELTGSDCSESNAEIENLSQVDGPQVEEQLLSTTVQPNLEKEVWGMENNSSESSFADSSVVSESDTSLAEGSVSCLDESLGHNSNMGSDSGTMGSDSDEENVAARASPEPELQLRPYQMEVAQPALEGKNIIICLPTGSGKTRVAVYIAKDHLDKKKKASEPGKVIVLVNKVLLVEQLFRKEFQPFLKKWYRVIGLSGDTQLKISFPEVVKSCDIIISTAQILENSLLNLENGEDAGVQLSDFSLIIIDECHHTNKEAVYNNIMRHYLMQKLKNNRLKKENKPVIPLPQILGLTASPGVGGATKQAKAEEHILKLCANLDAFTIKTVKENLDQLKNQIQEPCKKFAIADATREDPFKEKLLEIMTRIQTYCQMSPMSDFGTQPYEQWAIQMEKKAAKEGNRKERVCAEHLRKYNEALQINDTIRMIDAYTHLETFYNEEKDKKFAVIEDDSDEGGDDEYCDGDEDEDDLKKPLKLDETDRFLMTLFFENNKMLKRLAENPEYENEKLTKLRNTIMEQYTRTEESARGIIFTKTRQSAYALSQWITENEKFAEVGVKAHHLIGAGHSSEFKPMTQNEQKEVISKFRTGKINLLIATTVAEEGLDIKECNIVIRYGLVTNEIAMVQARGRARADESTYVLVAHSGSGVIEHETVNDFREKMMYKAIHCVQNMKPEEYAHKILELQMQSIMEKKMKTKRNIAKHYKNNPSLITFLCKNCSVLACSGEDIHVIEKMHHVNMTPEFKELYIVRENKALQKKCADYQINGEIICKCGQAWGTMMVHKGLDLPCLKIRNFVVVFKNNSTKKQYKKWVELPITFPNLDYSECCLFSDED
For the molecule B2, in the assay with HA-TRIM4, the binding result is on record as “binds”.

B3: HA-TRIM4 (enzyme, UniProt Q9C037 1-500)
chain: MEAEDIQEELTCPICLDYFQDPVSIECGHNFCRGCLHRNWAPGGGPFPCPECRHPSAPAALRPNWALARLTEKTQRRRLGPVPPGLCGRHWEPLRLFCEDDQRPVCLVCRESQEHQTHAMAPIDEAFESYRTGNFDIHVDEWKRRLIRLLLYHFKQEEKLLKSQRNLVAKMKKVMHLQDVEVKNATQWKDKIKSQRMRISTEFSKLHNFLVEEEDLFLQRLNKEEEETKKKLNENTLKLNQTIASLKKLILEVGEKSQAPTLELLQNPKEVLTRSEIQDVNYSLEAVKVKTVCQIPLMKEMLKRFQVAVNLAEDTAHPKLVFSQEGRYVKNTASASSWPVFSSAWNYFAGWRNPQKTAFVERFQHLPCVLGKNVFTSGKHYWEVESRDSLEVAVGVCREDVMGITDRSKMSPDVGIWAIYWSAAGYWPLIGFPGTPTQQEPALHRVGVYLDRGTGNVSFYSAVDGVHLHTFSCSSVSRLRPFFWLSPLASLVIPPVTDRK
Regarding B3, the binding result with GFP-MDA5 is “binds”.

B4: endogenous TRIM4 (enzyme, UniProt Q9C037 1-500)
chain: MEAEDIQEELTCPICLDYFQDPVSIECGHNFCRGCLHRNWAPGGGPFPCPECRHPSAPAALRPNWALARLTEKTQRRRLGPVPPGLCGRHWEPLRLFCEDDQRPVCLVCRESQEHQTHAMAPIDEAFESYRTGNFDIHVDEWKRRLIRLLLYHFKQEEKLLKSQRNLVAKMKKVMHLQDVEVKNATQWKDKIKSQRMRISTEFSKLHNFLVEEEDLFLQRLNKEEEETKKKLNENTLKLNQTIASLKKLILEVGEKSQAPTLELLQNPKEVLTRSEIQDVNYSLEAVKVKTVCQIPLMKEMLKRFQVAVNLAEDTAHPKLVFSQEGRYVKNTASASSWPVFSSAWNYFAGWRNPQKTAFVERFQHLPCVLGKNVFTSGKHYWEVESRDSLEVAVGVCREDVMGITDRSKMSPDVGIWAIYWSAAGYWPLIGFPGTPTQQEPALHRVGVYLDRGTGNVSFYSAVDGVHLHTFSCSSVSRLRPFFWLSPLASLVIPPVTDRK
B4: the binding entry in assay [1] and in assay [2] was “binds” throughout.

B5: His-TRIM4 (purified from E. coli) (enzyme, UniProt Q9C037 1-500)
chain: MEAEDIQEELTCPICLDYFQDPVSIECGHNFCRGCLHRNWAPGGGPFPCPECRHPSAPAALRPNWALARLTEKTQRRRLGPVPPGLCGRHWEPLRLFCEDDQRPVCLVCRESQEHQTHAMAPIDEAFESYRTGNFDIHVDEWKRRLIRLLLYHFKQEEKLLKSQRNLVAKMKKVMHLQDVEVKNATQWKDKIKSQRMRISTEFSKLHNFLVEEEDLFLQRLNKEEEETKKKLNENTLKLNQTIASLKKLILEVGEKSQAPTLELLQNPKEVLTRSEIQDVNYSLEAVKVKTVCQIPLMKEMLKRFQVAVNLAEDTAHPKLVFSQEGRYVKNTASASSWPVFSSAWNYFAGWRNPQKTAFVERFQHLPCVLGKNVFTSGKHYWEVESRDSLEVAVGVCREDVMGITDRSKMSPDVGIWAIYWSAAGYWPLIGFPGTPTQQEPALHRVGVYLDRGTGNVSFYSAVDGVHLHTFSCSSVSRLRPFFWLSPLASLVIPPVTDRK
Take B5: in assay [3], the binding result is listed as “binds”.
